These are yes or no findings as the source states them, for the method shown. Binding seen in cells or lysates may run through a third protein. Binding calls can cover weak binding; strength is not graded here. Tags and fused reporters may be left off the sequences shown.

The assay concerns the target GST-Rat-Dcc (Dcc cytoplasmic domain only) (rat). The assay can be described thus: pull-down; 3 μg GST or GST fusion protein on glutathione-agarose beads incubated with 25-40 μl in vitro translated protein(s) for 2 hours at 4°C in 0.1% IPH buffer (50 mM tris pH 8.0, 50 to 150 mM NaCl, 5 mM EDTA, 0.01% BSA, 0.1% NP40); Western blot; only the target purified.

B1: Rat Git1^WT-FLAG, in vitro translated (protein, UniProt Q9Z272 1-770)
chain: MSRKGPRAEVCADCSAPDPGWASISRGVLVCDECCSVHRSLGRHISIVKHLRHSAWPPTLLQMVHTLASNGANSIWEHSLLDPAQVQSGRRKANPQDKVHPIKSEFIRAKYQMLAFVHKLPCRDDDGVTAKDLSKQLHSSVRTGNLETCLRLLSLGAQANFFHPEKGTTPLHVAAKAGQTLQAELLVVYGADPGSPDVNGRTPIDYARQAGHHELAERLVECQYELTDRLAFYLCGRKPDHKNGHYIIPQMADRSRQKCMSQSLDLSELAKAAKKKLQALSNRLFEELAMDVYDEVDRRENDAVWLATQNHSTLVTERSAVPFLPVNPEYSATRNQGRQKLARFNAREFATLIIDILSEAKRRQQGKSLSSPTDNLELSARNQSDLDDQHDYDSVASDEDTDQEPLPSAGATRNNRARSMDSSDLSDGAVTLQEYLELKKALATSEAKVQQLMKVNSSLSDELRKLQREIHKLQAENLQLRQPPGPVPVPSLPSERAEHTLMGPGGSTHRRDRQAFSMYEPGSALKPFGGAPGDELATRLQPFHSTELEDDAIYSVHVPAGLYRIRKGVSASSVTFTPSSPLLSSSQEGSRHASKLSRHGSGAESDYENTQSGEPLLGLEGKRFLELSKEDELHAELESLDGDPDPGLPSTEDVILKTEQVTKNIQELLRAAQEFKHDSFVPCSEKIHLAVTEMASLFPKRPALEPVRSSLRLLNASAYRLQSECRKTVPPEPGAPVDFQLLTQQVIQCAYDIAKAAKQLVTITTREKKQ
Consider B1, for which the binding entry was “binds”.

(Values after PMC10181192.)
